Data: the supplement of paper PMC8426693
The list shows a part of the results.

How the values were obtained:
Test in all cases: NMR binding call after quantification (hit when 2 of 3 NMR criteria are met) (binary (1 = binding, 0 = not binding)); higher = binding
Details in all cases: RNA concentration 10 µM; fragment concentration 200 µM; 293 K
SARS-CoV-2 3'-UTR RNA = tested on: SARS-CoV-2 3'-UTR RNA
SARS-CoV-2 3_SL1 RNA = tested on: SARS-CoV-2 3_SL1 RNA
SARS-CoV-2 3_SL1+2 RNA = tested on: SARS-CoV-2 3_SL1+2 RNA
SARS-CoV-2 3_SL2 RNA = tested on: SARS-CoV-2 3_SL2 RNA
SARS-CoV-2 3_SL3base RNA = tested on: SARS-CoV-2 3_SL3base RNA
SARS-CoV-2 3_s2m RNA = tested on: SARS-CoV-2 3_s2m RNA
SARS-CoV-2 5'-UTR RNA = tested on: SARS-CoV-2 5'-UTR RNA
SARS-CoV-2 5_SL1 RNA = tested on: SARS-CoV-2 5_SL1 RNA
SARS-CoV-2 5_SL1234 RNA = tested on: SARS-CoV-2 5_SL1234 RNA
SARS-CoV-2 5_SL2+3 RNA = tested on: SARS-CoV-2 5_SL2+3 RNA
SARS-CoV-2 5_SL4 RNA = tested on: SARS-CoV-2 5_SL4 RNA
SARS-CoV-2 5_SL5 RNA = tested on: SARS-CoV-2 5_SL5 RNA
SARS-CoV-2 5_SL5a RNA = tested on: SARS-CoV-2 5_SL5a RNA
SARS-CoV-2 5_SL5b+c RNA = tested on: SARS-CoV-2 5_SL5b+c RNA
SARS-CoV-2 5_SL5stem RNA = tested on: SARS-CoV-2 5_SL5stem RNA
SARS-CoV-2 5_SL6 RNA = tested on: SARS-CoV-2 5_SL6 RNA

SMILES | NMR binding call (SARS-CoV-2 3'-UTR RNA) | NMR binding call (SARS-CoV-2 3_SL1 RNA) | NMR binding call (SARS-CoV-2 3_SL1+2 RNA) | NMR binding call (SARS-CoV-2 3_SL2 RNA) | NMR binding call (SARS-CoV-2 3_SL3base RNA) | NMR binding call (SARS-CoV-2 3_s2m RNA) | NMR binding call (SARS-CoV-2 5'-UTR RNA) | NMR binding call (SARS-CoV-2 5_SL1 RNA) | NMR binding call (SARS-CoV-2 5_SL1234 RNA) | NMR binding call (SARS-CoV-2 5_SL2+3 RNA) | NMR binding call (SARS-CoV-2 5_SL4 RNA) | NMR binding call (SARS-CoV-2 5_SL5 RNA) | NMR binding call (SARS-CoV-2 5_SL5a RNA) | NMR binding call (SARS-CoV-2 5_SL5b+c RNA) | NMR binding call (SARS-CoV-2 5_SL5stem RNA) | NMR binding call (SARS-CoV-2 5_SL6 RNA)
CC(N)c1ccc(NC(=O)C2CC2)cc1.Cl (stereo unspecified) | 0 | 0 | 0 | 0 | 0 | 0 | 0 | 0 | 0 | 0 | 0 | 0 | 0 | 0 | 0 | 0
Cc1nc(C(=O)N2CCCC2)c(C)s1 | 0 | 0 | 0 | 0 | 0 | 0 | 0 | 0 | 0 | 0 | 0 | 0 | 0 | 0 | 0 | 0
CN(C)C(=O)C1(C(=O)O)CC1 | 0 | 0 | 0 | 0 | 0 | 0 | 0 | 0 | 0 | 0 | 0 | 0 | 0 | 0 | 0 | 0
COCCNC1CCN(C(C)=O)CC1 | 0 | 0 | 0 | 0 | 0 | 0 | 0 | 0 | 0 | 0 | 0 | 0 | 0 | 0 | 0 | 0
COc1ccc(CNC(=O)c2cnccn2)cc1 | 0 | 0 | 0 | 0 | 0 | 0 | 0 | 0 | 0 | 0 | 0 | 0 | 0 | 0 | 0 | 0
COC(=O)COc1ccc(C#N)cc1 | 0 | 0 | 0 | 0 | 0 | 0 | 0 | 0 | 0 | 0 | 0 | 0 | 0 | 0 | 0 | 0
CC1CN(C)CCC1Nc1cnn(C)c1 (stereo unspecified) | 0 | 0 | 0 | 0 | 0 | 0 | 0 | 0 | 0 | 0 | 0 | 0 | 0 | 0 | 0 | 0
CNC(=O)C1CNCCO1 (stereo unspecified) | 0 | 0 | 0 | 0 | 0 | 0 | 0 | 0 | 0 | 0 | 0 | 0 | 0 | 0 | 0 | 0
Cc1ccc(Nc2ncnc3[nH]ncc23)cc1 | 1 | 0 | 0 | 0 | 0 | 0 | 0 | 0 | 0 | 0 | 0 | 0 | 0 | 0 | 0 | 0
Cn1cc(CNC(=O)c2ccco2)cn1 | 0 | 0 | 0 | 0 | 0 | 0 | 0 | 0 | 0 | 0 | 0 | 0 | 0 | 0 | 0 | 0
N#CCN1CCN(c2cccc(Cl)c2)CC1 | 0 | 0 | 0 | 0 | 0 | 0 | 0 | 0 | 0 | 0 | 0 | 0 | 0 | 0 | 0 | 0
Cn1nc(C(N)=O)c2ccccc21 | 0 | 0 | 0 | 0 | 0 | 0 | 0 | 0 | 0 | 0 | 0 | 0 | 0 | 0 | 0 | 0
CSc1nsc(NC(C)=O)n1 | 0 | 0 | 0 | 0 | 0 | 0 | 0 | 0 | 0 | 0 | 0 | 0 | 0 | 0 | 0 | 0
CC(C)c1ccc(CN2CCC(O)CC2)cc1 | 0 | 0 | 0 | 0 | 0 | 0 | 0 | 0 | 0 | 0 | 0 | 0 | 0 | 0 | 0 | 0
O=C(NCCc1ccc(O)cc1)c1ccccn1 | 0 | 0 | 0 | 0 | 0 | 0 | 0 | 0 | 0 | 0 | 0 | 0 | 0 | 0 | 0 | 0
O=C(NCc1nc2ccccc2[nH]1)c1ccco1 | 0 | 0 | 0 | 0 | 0 | 0 | 0 | 0 | 0 | 0 | 0 | 0 | 0 | 0 | 0 | 0
CC1CN(Cc2nnsc2Cl)C(C)CO1 (stereo unspecified) | 0 | 0 | 0 | 0 | 0 | 0 | 0 | 0 | 0 | 0 | 0 | 0 | 0 | 0 | 0 | 0
COc1cccc(CN2CCC(C(N)=O)CC2)c1 | 0 | 0 | 0 | 0 | 0 | 0 | 0 | 0 | 0 | 0 | 0 | 0 | 0 | 0 | 0 | 0

SMILES | NMR binding call (SARS-CoV-2 3'-UTR RNA) | NMR binding call (SARS-CoV-2 3_SL1 RNA) | NMR binding call (SARS-CoV-2 3_SL1+2 RNA) | NMR binding call (SARS-CoV-2 3_SL2 RNA) | NMR binding call (SARS-CoV-2 3_SL3base RNA) | NMR binding call (SARS-CoV-2 3_s2m RNA) | NMR binding call (SARS-CoV-2 5'-UTR RNA) | NMR binding call (SARS-CoV-2 5_SL1 RNA) | NMR binding call (SARS-CoV-2 5_SL1234 RNA) | NMR binding call (SARS-CoV-2 5_SL2+3 RNA) | NMR binding call (SARS-CoV-2 5_SL4 RNA) | NMR binding call (SARS-CoV-2 5_SL5 RNA) | NMR binding call (SARS-CoV-2 5_SL5a RNA) | NMR binding call (SARS-CoV-2 5_SL5b+c RNA) | NMR binding call (SARS-CoV-2 5_SL5stem RNA) | NMR binding call (SARS-CoV-2 5_SL6 RNA)
CC(C)NC(=O)N(C)C1CCS(=O)(=O)C1 (stereo unspecified) | 0 | 0 | 0 | 0 | 0 | 0 | 0 | 0 | 0 | 0 | 0 | 0 | 0 | 0 | 0 | 0
Cc1nnc(CN2CCC=C(F)C2)s1 | 0 | 0 | 0 | 0 | 0 | 0 | 0 | 0 | 0 | 0 | 0 | 0 | 0 | 0 | 0 | 0
CS(=O)(=O)NCCc1ccc(F)cc1 | 0 | 0 | 0 | 0 | 0 | 0 | 0 | 0 | 0 | 0 | 0 | 0 | 0 | 0 | 0 | 0
CCNCc1cccc2[nH]ccc12 | 0 | 0 | 0 | 0 | 0 | 0 | 1 | 0 | 0 | 0 | 0 | 0 | 0 | 0 | 0 | 0
CN(C1CCCCCC1)S(C)(=O)=O | 0 | 0 | 0 | 0 | 0 | 0 | 0 | 0 | 0 | 0 | 0 | 0 | 0 | 0 | 0 | 0
CC(C)n1cc(C(=O)O)nn1 | 0 | 0 | 0 | 0 | 0 | 0 | 0 | 0 | 0 | 0 | 0 | 0 | 0 | 0 | 0 | 0
CCc1nnc(NC(=O)CN(C)C)s1 | 0 | 0 | 0 | 0 | 0 | 0 | 0 | 0 | 0 | 0 | 0 | 0 | 0 | 0 | 0 | 0
CC(=O)c1cccc(NC(=O)N2CCOCC2)c1 | 0 | 0 | 0 | 0 | 0 | 0 | 0 | 0 | 0 | 0 | 0 | 0 | 0 | 0 | 0 | 0
CC(C)c1ccc(NC(=O)N2CCOCC2)cc1 | 0 | 0 | 0 | 0 | 0 | 0 | 0 | 0 | 0 | 0 | 0 | 0 | 0 | 0 | 0 | 0
CCNC(=O)c1ccc(N(C)C)c(F)c1 | 0 | 0 | 0 | 0 | 0 | 0 | 0 | 0 | 0 | 0 | 0 | 0 | 0 | 0 | 0 | 0
O=C(CN1CCCC1)Nc1ccc(F)cc1 | 0 | 0 | 0 | 0 | 0 | 0 | 0 | 0 | 0 | 0 | 0 | 0 | 0 | 0 | 0 | 0
CN(Cc1cccc(F)c1)S(N)(=O)=O | 0 | 0 | 0 | 0 | 0 | 0 | 0 | 0 | 0 | 0 | 0 | 0 | 0 | 0 | 0 | 0
Cc1noc(NC(=O)CC2CCCC2)n1 | 0 | 0 | 0 | 0 | 0 | 0 | 0 | 0 | 0 | 0 | 0 | 0 | 0 | 0 | 0 | 0
Cc1cc(C(=O)Nc2ccn(C)n2)on1 | 0 | 0 | 0 | 0 | 0 | 0 | 0 | 0 | 0 | 0 | 0 | 0 | 0 | 0 | 0 | 0
CC(=O)N1CCCC2(CCCCCC2)C1 | 0 | 0 | 0 | 0 | 0 | 0 | 0 | 0 | 0 | 0 | 0 | 0 | 0 | 0 | 0 | 0
CCN(CCO)c1ccc(N)cc1 | 0 | 0 | 0 | 0 | 0 | 0 | 0 | 0 | 0 | 0 | 0 | 0 | 0 | 0 | 0 | 0
CN(c1ccc(C(N)=O)nn1)C1CCC1 | 0 | 0 | 0 | 0 | 0 | 0 | 0 | 0 | 0 | 0 | 0 | 0 | 0 | 0 | 0 | 0
CC1CCC(C(=O)N2CCC=C(F)C2)O1 (stereo unspecified) | 0 | 0 | 0 | 0 | 0 | 0 | 0 | 0 | 0 | 0 | 0 | 0 | 0 | 0 | 0 | 0

Some entries already given, showing only NMR binding call (SARS-CoV-2 5_SL1 RNA).
SMILES | NMR binding call (SARS-CoV-2 5_SL1 RNA)
CC(=O)N1CCCC2(CCCCCC2)C1 | 0
CCN(CCO)c1ccc(N)cc1 | 0
